We go through six compounds from PubChem BioAssay AID248 (DTP/NCI, 2004).

In this test the test system is L1210 leukemia ip in BDF1 mice, survival T/C. Kind of test: NCI In Vivo Anticancer Drug Screen. Data for tumor model L1210 Leukemia (intraperitoneal) in B6D2F1 (BDF1) mice. As to conditions: T/C endpoint: mean survival time, higher T/C = longer survival.
The mark [1] stands for this setting: dose: 45.0 mg/kg/injection, schedule: Q01DX Z (ip), vehicle: methylcellulose (MC).

The structures appear in SMILES notation. The list shows only some results of the screen, not a fair sample: its compounds were picked by chemical class. Other doses and runs of a compound may be missing. T/C gives the treated animals as a percentage of the vehicle group. Some doses have a count of surviving animals in place of a T/C: the source files T/C as zero there, which appears to mark a toxic dose or a test without result, not a measured value. Some survivor counts are full or nearly so, which does not show that the dose was tolerated: the source hardly ever lists a survival T/C far under the control, and the zero likely stands for such cases as well. Survivors were counted at the toxicity check, usually on the fifth day, unless a day is given; later deaths do not show. Schedules are NCI's codes, read here as Q, the interval in days (D) or hours (H), X, the number of doses. Some schedule codes hold Z or #, which are not explained here. Some doses were run more than once; the values are given in rising order. For survival time, the PubChem record calls one and a half times the control and up active, and a quarter to a half above the control has no call in these data; cut-offs in other NCI protocols can differ. Some T/C values are marked as having no survivor count here; that says nothing about deaths at the dose. Some T/C values carry the count of animals alive at the toxicity check (mostly the fifth day); without a count or a note in brackets, all were alive then.

On to `Oc1ccc(N(CCCl)CCCl)cc1O`, for which the T/C (dose: 1.17 mg/kg/injection, schedule: Q01DX001 (ip), vehicle: water) was 100 % of control; the T/C (dose: 2.34 mg/kg/injection, schedule: Q01DX001 (ip), vehicle: water) is 109 % of control; the T/C (dose: 4.68 mg/kg/injection, schedule: Q01DX001 (ip), vehicle: water) is 110 % of control [5 of 6 alive]. For the same compound, the survivor count was 0 of 6 (dose: 9.38 mg/kg/injection, schedule: Q01DX001 (ip), vehicle: water); 0 of 6 (dose: 18.75 mg/kg/injection, schedule: Q01DX001 (ip), vehicle: water); 0 of 6 (dose: 37.5 mg/kg/injection, schedule: Q01DX001 (ip), vehicle: water); 0 of 6 (dose: 75.0 mg/kg/injection, schedule: Q01DX001 (ip), vehicle: water); 0 of 6 (dose: 150.0 mg/kg/injection, schedule: Q01DX001 (ip), vehicle: water); 0 of 6 (dose: 300.0 mg/kg/injection, schedule: Q01DX001 (ip), vehicle: water).
As to `O=[N+]([O-])c1cc2c(c([N+](=O)[O-])c1)-c1c(cc([N+](=O)[O-])cc1[N+](=O)[O-])C2=NO`, the T/C reads like this: (dose: 50.0 mg/kg/injection, schedule: Q04DX002 (ip), vehicle: saline with Tween-80) 92 % of control [survivor count not shown]; (dose: 100.0 mg/kg/injection, schedule: Q04DX002 (ip), vehicle: saline with Tween-80) 92 % of control [survivor count not shown]; (dose: 200.0 mg/kg/injection, schedule: Q04DX002 (ip), vehicle: saline with Tween-80) 92 % of control [survivor count not shown].
In the case of `CCN(CCCl)CC(O)C(O)C(O)C(O)C=O` (configuration not stated), the T/C is, setting by setting: (dose: 13.0 mg/kg/injection, schedule: Q01DX Z (ip), vehicle: methylcellulose (MC)) 106 [5 of 6 alive], 117, 157 % of control; (dose: 20.0 mg/kg/injection, schedule: Q01DX Z (ip), vehicle: methylcellulose (MC)) 112, 114, 139 % of control; (dose: 30.0 mg/kg/injection, schedule: Q01DX Z (ip), vehicle: methylcellulose (MC)) 102, 110, 156 % of control; under setting [1], 108 % of control. In addition, under setting [1], the survivor count was 4 of 6 and 5 of 6.
Take `C1CN1.C=O.COC(=O)CC(=O)OC`: the T/C is, setting by setting: (dose: 100.0 mg/kg/injection, schedule: Q04DX003 (ip), vehicle: Klucel (hydroxypropylcellulose) (HPC)) 95 % of control; (dose: 200.0 mg/kg/injection, schedule: Q04DX003 (ip), vehicle: Klucel (hydroxypropylcellulose) (HPC)) 101 % of control; (dose: 400.0 mg/kg/injection, schedule: Q04DX003 (ip), vehicle: Klucel (hydroxypropylcellulose) (HPC)) 95 % of control.
For the compound `CN(C)NP(N)(Cl)(c1ccccc1)c1ccccc1`, the T/C (dose: 100.0 mg/kg/injection, schedule: Q01DX001 (ip), vehicle: saline) is 97 % of control. Further, the survivor count is on record as 1 of 4 (dose: 200.0 mg/kg/injection, schedule: Q01DX001 (ip), vehicle: saline) and 0 of 4 (dose: 400.0 mg/kg/injection, schedule: Q01DX001 (ip), vehicle: saline).
For `CCNP(=O)(OCc1ccccc1)N(CCCl)CCCl` (configuration not stated), the T/C was 95 % of control (dose: 16.0 mg/kg/injection, schedule: Q01DX Z (ip), vehicle: saline); 109 % of control (dose: 32.0 mg/kg/injection, schedule: Q01DX Z (ip), vehicle: saline); 109 % of control (dose: 64.0 mg/kg/injection, schedule: Q01DX Z (ip), vehicle: saline); 117 % of control (dose: 128.0 mg/kg/injection, schedule: Q01DX Z (ip), vehicle: saline).
